Test results reported in PubChem BioAssay AID743255 (National Center for Advancing Translational Sciences (NCATS), 2014).
About 910 (0.23%) of roughly 390,000 compounds were called active. The shares of active, inactive and inconclusive entries below differ from those in the screen. The call rests on the fitted dose curve; in most records, active means well fitted inhibition curve with a large enough effect; inconclusive means small, poorly fitted or top-dose-only effect; inactive means no such curve, though single readings can be large or run the other way. Potencies beside an inconclusive call are fits to weak or partial responses and may not hold up.

Chains of the proteins cited; added tags and fusions are not shown. Lines headed by an entry give the natural chain unless they say otherwise; changes in a name come on top.
UniProt O94782: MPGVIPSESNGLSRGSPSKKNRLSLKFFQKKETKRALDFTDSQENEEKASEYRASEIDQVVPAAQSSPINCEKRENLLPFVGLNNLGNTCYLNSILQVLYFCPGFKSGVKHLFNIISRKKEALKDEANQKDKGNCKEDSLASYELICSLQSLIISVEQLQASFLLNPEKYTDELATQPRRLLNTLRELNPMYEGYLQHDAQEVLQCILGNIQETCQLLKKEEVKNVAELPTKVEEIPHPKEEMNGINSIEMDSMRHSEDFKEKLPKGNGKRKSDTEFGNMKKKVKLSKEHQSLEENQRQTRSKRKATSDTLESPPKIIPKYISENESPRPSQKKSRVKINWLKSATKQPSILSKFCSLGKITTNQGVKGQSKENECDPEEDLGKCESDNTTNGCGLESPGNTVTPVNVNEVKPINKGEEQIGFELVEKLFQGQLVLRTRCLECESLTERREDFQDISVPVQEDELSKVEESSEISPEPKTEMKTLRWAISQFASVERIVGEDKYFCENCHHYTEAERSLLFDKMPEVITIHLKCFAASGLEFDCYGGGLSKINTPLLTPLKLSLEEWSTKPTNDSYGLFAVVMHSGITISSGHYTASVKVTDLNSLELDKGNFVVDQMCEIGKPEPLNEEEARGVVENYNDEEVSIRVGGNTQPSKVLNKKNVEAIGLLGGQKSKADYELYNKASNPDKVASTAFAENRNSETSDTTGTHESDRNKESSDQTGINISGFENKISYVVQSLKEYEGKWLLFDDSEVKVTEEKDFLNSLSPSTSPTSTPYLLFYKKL

biological target: Ubiquitin carboxyl-terminal hydrolase 1 (Homo sapiens) (UniProt O94782); test: Inhibitors of USP1/UAF1: Primary Screen; conditions: recombinant USP1/UAF1, Ub-Rhodamine cleavage fluorescence; series mostly up to 57.1 µM; further: nearly all actives have a fitted effect of over 60% in size
Procedure, shortened: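 High-throughput fluorogenic screen: 1nM USP1/UAF1 complex, Ub-Rho substrate 150nM final, 50mM HEPES pH 7.8 with 0.5mM EDTA, 0.1 mg/ml BSA, 1mM TCEP and 0.01% Tween-20.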
Potency means the concentration at half of the fitted maximal effect.

| SMILES | Potency |
| --- | --- |
| CCCOc1ccc([C@@H]2C3CN(C(=O)OCC)CC=C3C(C#N)=C(N)C2(C#N)C#N)cc1OC (stereo partly specified) | inconclusive: 25.1 µM [inhibitor, partial curve] |
| COc1cccc(NS(=O)(=O)c2ccc3[nH]cc(C(=O)NC(C)c4ccccc4)c(=O)c3c2)c1 (stereo unspecified) | inconclusive: 7.94 µM [inhibitor, single point] |
| O=C(Nc1cc(S(=O)(=O)N2CCOCC2)ccc1N1CCOCC1)c1ccc(S(=O)(=O)N2CCCCC2)cc1 | inconclusive: 0.708 µM [inhibitor, full curve] |
| COc1ccc(-c2cc(C(F)(F)F)nc(SCCC(=O)N3CCN(C)CC3)n2)cc1 | inconclusive: 39.8 µM [inhibitor, partial curve] |
| NC(=O)c1nnsc1-c1ccco1 | inconclusive: 35.5 µM [inhibitor, single point] |
| Cc1ccc(CNC(=O)C2CC(c3cccc(F)c3)=NO2)cc1 (stereo unspecified) | inconclusive: 3.16 µM [inhibitor, partial curve] |
| CCc1cccc(NC(=O)c2ccc3c(c2)N(Cc2cccc(Cl)c2)C(=O)c2ccccc2S3=O)c1 (stereo unspecified) | inconclusive: 0.251 µM [inhibitor, full curve, poor fit] |
| COc1cc(CN2CCN(C(c3ccccc3)c3ccccc3)CC2)cc(OC)c1OC | inactive |
| CCOC(=O)c1c(C)[nH]c(C)c1S(=O)(=O)N1CCN(c2cc(Cl)ccc2C)CC1 | inconclusive: 7.94 µM [inhibitor, partial curve] |
| O=C(NCCN1CCOCC1)c1cnn2c(-c3ccccc3)cc(-c3ccccc3)nc12 | inactive |
| COc1cc(OC)cc(-c2sc3ccc(OC)cc3c2C#CCCO)c1 | inconclusive: 31.6 µM [inhibitor, partial curve] |
| COc1ccc(C2(CNC(=O)Cc3ccc(OC)c(OC)c3)CCCC2)cc1 | inconclusive: 50.1 µM [inhibitor, partial curve, poor fit] |
| CCN1C(=S)N[C@@H](CCc2ccccc2)C(C(=O)OC)=C1C | inconclusive: 10 µM [inhibitor, partial curve, poor fit] |
| Cc1ccccc1N=Cc1cccc(O)c1O | inconclusive: 31.6 µM [inhibitor, partial curve] |
| Cc1cccc(CNC(=O)Cn2nc(C)c3nn(-c4ccc(Cl)cc4)c(C)c3c2=O)c1 | inconclusive: 0.794 µM [inhibitor, full curve] |
| COc1cccc2cc(C(=O)N3CCC(C)CC3)c(=O)oc12 | inconclusive: 44.7 µM [inhibitor, partial curve, poor fit] |
| CCCCN(CC)CCCNC(=O)c1cc2cc3ccc(OC)cc3nc2o1 | inactive |
| CC(C)Oc1ccc(Cn2c(-c3ccco3)n[nH]c2=S)cc1 | inactive |
| Cc1ccc(-n2ncc(C(=O)N3CCN(c4ccccc4F)CC3)c2C2CCN(C(=O)OC(C)(C)C)CC2)cc1C | inconclusive: 0.1 µM [inhibitor, full curve, poor fit] |
| Cc1cc(C)nc(NNC(=O)NC2CCCCC2)n1 | inactive |
| CC(=O)Oc1c(I)cc(I)cc1C(=O)Nc1ccc(Cl)cc1 | inactive |
| CSc1ncnc2c1ccn2CC(=O)Nc1ccc(C)c(C)c1 | inconclusive: 50.1 µM [inhibitor, partial curve, poor fit] |

Rewritten comma-delimited: two of the compounds above
SMILES,Potency
COc1cc(CN2CCN(C(c3ccccc3)c3ccccc3)CC2)cc(OC)c1OC,inactive
CCOC(=O)c1c(C)[nH]c(C)c1S(=O)(=O)N1CCN(c2cc(Cl)ccc2C)CC1,"inconclusive: 7.94 µM [inhibitor, partial curve]"

(cont.)

| SMILES | Potency |
| --- | --- |
| CCOC(=O)C1CCCN(c2c(N3CCN(c4ccccn4)CC3)c(=O)c2=O)C1 (stereo unspecified) | inconclusive: 0.794 µM [inhibitor, full curve, poor fit] |
| Fc1cccc(CN2CCc3nc(Nc4ccc5c(c4)OCCO5)ncc3C2)c1F | inactive |
| Cc1ccc(CSC2=NC(C)(C)Nc3ccccc32)c(C)c1 | inconclusive: 44.7 µM [inhibitor, partial curve, poor fit] |
| Cc1ccc(NS(=O)(=O)c2ccc3c(c2)n(C)c(=O)n3C)c(C)c1 | inconclusive: 25.1 µM [inhibitor, partial curve] |
| CN(CC(=O)Nc1cccc(S(=O)(=O)N(C)c2ccccc2)c1)Cc1cccs1 | inconclusive: 0.1 µM [inhibitor, full curve, poor fit] |
| NCCCC[C@H]1CNC(=S)N1CC1(c2ccccc2)CC1 | inconclusive: 0.126 µM [inhibitor, full curve, poor fit] |
| CN1CCC(CO)(Cc2ccccc2)CC1 | inactive |
| Cc1ccc(NC(=O)Cn2c(=O)n(Cc3ccccc3)c(=O)c3c(C)c(C(=O)N(C)C)sc32)c(C)c1 | inactive |
| COc1ccc(NC(=O)c2ccco2)cc1NC(=O)c1ccccc1[N+](=O)[O-] | inconclusive: 79.4 µM [inhibitor, partial curve, poor fit] |
| C=CC[C@H](CC(=O)OC(C)(C)C)C(=O)OC[C@@H]1CCCN1C(=O)[C@@H](CC=C)CC(=O)N[C@H](CO)Cc1ccccc1 | inconclusive: 7.94 µM [inhibitor, partial curve, poor fit] |
| COc1ccc(N(C)S(=O)(=O)c2ccc3c(c2)CCN3C(=O)CCC(=O)O)cc1 | inconclusive: 0.355 µM [inhibitor, full curve] |
| CN(C)c1ccc(/C=C/C(=O)c2ccccc2O)cc1 | inconclusive: 35.5 µM [inhibitor, partial curve] |
| CCN(CC)c1ccc(NC(=S)NC(=O)c2ccco2)cc1 | inactive |
| CN1C(C(=O)NCc2cccc(Br)c2)CC2Cn3c(nc4ccccc43)C21 (stereo unspecified) | inconclusive: 50.1 µM [inhibitor, partial curve, poor fit] |
| COc1cc(/C=N/NC(=O)c2sc3nc(C)cc(C)c3c2N)ccc1O | inconclusive: 7.94 µM [inhibitor, partial curve, poor fit] |
| COc1ccc(C)c(-n2c(N)cc(=O)n(Cc3ccccc3)c2=O)c1 | inactive |
| O=C(O)CCC(=O)N1CCc2cc(S(=O)(=O)NCc3cccs3)ccc21 | inactive |
| CCOC(=O)Cc1csc(NC(=O)c2cc(C)c(C)s2)n1 | inactive |
| COc1ccc(NC(=O)CSc2nnc3n2CCCCC3)cc1S(=O)(=O)N(C)C | inconclusive: 0.355 µM [inhibitor, full curve] |
| CC(C)CCNC(=O)Nc1cc(C(=O)NCc2cccc(F)c2)ccc1N1CCCC1 | inconclusive: 50.1 µM [inhibitor, partial curve, poor fit] |
| COc1ccc2c(c1)c1c(c(=O)n(Cc3ccccc3)c(=O)n1CC(=O)Nc1ccc(C)cc1C)n2C | inactive |
| COc1ccc(C)cc1NC(=O)Cn1c(=O)oc2cc(S(=O)(=O)NCc3ccccc3)ccc21 | inconclusive: 2.24 µM [inhibitor, full curve, poor fit] |

| SMILES | Potency |
| --- | --- |
| CCN(CC)C(=O)C1CCCN(c2ccc([N+](=O)[O-])cc2)C1 (stereo unspecified) | inactive |
| COc1ccc(CCNC(=O)CSc2nnc3c(n2)[nH]c2ccc(F)cc23)cc1OC | inconclusive: 39.8 µM [inhibitor, single point] |
| CC1CCCN(C2=C(NS(=O)(=O)c3ccc(Br)cc3)C(=O)c3ccccc3C2=O)C1 (stereo unspecified) | inconclusive: 35.5 µM [inhibitor, partial curve, poor fit] |
| Cc1ccc(C2C3=C(CCCC3=O)Nc3[nH]c(=S)[nH]c(=O)c32)cc1 (stereo unspecified) | inactive |
| COc1ccc(CN(Cc2cccnc2)S(=O)(=O)c2ccc(-n3cnnn3)c(C)c2)cc1OC | inconclusive: 25.1 µM [inhibitor, single point] |
| COc1ccc(-c2csc3nc(-c4ccccc4F)oc(=O)c23)cc1OC | inconclusive: 50.1 µM [inhibitor, single point] |
| CCCCc1ccc(NC(=O)c2ccc3c(c2)CCN3S(=O)(=O)c2ccccc2)cc1 | inconclusive: 56.2 µM [inhibitor, partial curve, poor fit] |
| Cc1[nH][nH]c(=O)c1/C=N/N1CCOCC1 | inactive |
| CC(C)CC(=O)NC(=S)Nc1ccccc1N1CCCC1 | inconclusive: 35.5 µM [inhibitor, partial curve] |
| COc1ccc2nc3n(c(=O)c2c1)-c1ncccc1C(=O)NC3Cc1ccccc1 (stereo unspecified) | inactive |
| CC(=O)N1CCCc2cc(S(=O)(=O)N3CCCC(C(=O)Nc4cccc(Cl)c4C)C3)ccc21 (stereo unspecified) | inactive |
| CCN(CC)C(=O)/C(=C\c1cccc([N+](=O)[O-])c1)NC(=O)c1ccco1 | inactive |
| COc1cc2c(cc1OC)CN(C(=O)CC1CC3CCC1C3)CC2 (stereo unspecified) | inconclusive: 25.1 µM [inhibitor, partial curve] |
| C#CCOCCOCCOCCNc1nc(N2CCN(C(=O)[C@H](CCC(=O)O)n3cc(C(N)CC(C)C)nn3)CC2)nc(N2CCN(C(=O)[C@H](Cc3cc4ccccc4[nH]3)n3cc(C(N)CC(C)C)nn3)CC2)n1 (stereo partly specified) | inactive |
| CCOc1cccc(C(=O)Nc2ccc3oc(Cc4ccc(Cl)cc4)nc3c2)c1 | inactive |
| COc1ccc(N(C(=O)c2snc(C(N)=O)c2N)C(C(=O)NCc2ccc(F)cc2)c2ccc(O)cc2)cc1 (stereo unspecified) | inconclusive: 31.6 µM [inhibitor, partial curve, poor fit] |
| COc1ccc(OC)c(C2C(C#N)=C(N)Oc3c2c(C)nn3-c2ccc(C)cc2)c1 (stereo unspecified) | inactive |
| COc1ccccc1NC(=O)CSc1nnc(COc2ccccc2C)o1 | inconclusive: 15.8 µM [inhibitor, partial curve] |
| CC1CCCC(NCC(O)COC(c2ccc(F)cc2)c2ccc(F)cc2)C1C (stereo unspecified) | inactive |
| Cc1ccc(NC(=O)COC(=O)C2CC2(Cl)Cl)cc1C (stereo unspecified) | inactive |
| O=C(C1CCCO1)N1CCN(C(=S)Nc2ccc(Cl)cc2Cl)CC1 (stereo unspecified) | inconclusive: 6.31 µM [inhibitor, single point] |
| COc1cccc(NC(=O)Cn2c(=O)n(CC(=O)NCCc3ccccc3)c(=O)c3sccc32)c1 | inconclusive: 50.1 µM [inhibitor, partial curve] |

As entered above:
For Potency, `COc1ccc(CCNC(=O)CSc2nnc3c(n2)[nH]c2ccc(F)cc23)cc1OC` has inconclusive: 39.8 µM [inhibitor, single point]
For Potency, `COc1cc(OC)cc(-c2sc3ccc(OC)cc3c2C#CCCO)c1` has inconclusive: 31.6 µM [inhibitor, partial curve]
For Potency, `COc1ccc(C2(CNC(=O)Cc3ccc(OC)c(OC)c3)CCCC2)cc1` has inconclusive: 50.1 µM [inhibitor, partial curve, poor fit]
